Data as given in publication PMC8813966.

Key:
GST-LcKNAT1 [1] = molecular target: T1, GST-LcKNAT1 (UniProt A0A5C0C733); test: competition with a labelled probe; conditions: LightShift Chemiluminescent EMSA kit (Thermo Scientific), pH and temperature not stated, recombinant protein, protein details: N-terminal GST (pGEX-4T-1), label: none (competitor)
GST-LcKNAT1 [2] = molecular target: T1, GST-LcKNAT1; test: EMSA; conditions: unlabeled same-sequence competitor abolishes binding dose-dependently (100x, 500x); LightShift Chemiluminescent EMSA kit (Thermo Scientific); pH and temperature not stated; recombinant protein; protein details: N-terminal GST (pGEX-4T-1); label: 3' biotin

Sequence | binding result (GST-LcKNAT1 [2]) | other results
ACTTAATTTGGTCACAGCCGTTACCCCCCCCCTCATGTCCAGCCATACATGC (double strand) [LcEIL2 mutant probe] | – | binding result (GST-LcKNAT1 [1]; mutant competitor vs labeled N1): no binding
ACTTAATTTGGTCACAGCCGTTATGACTAGGTTCATGTCCAGCCATACATGC (double strand) [LcEIL2 probe] | binds | –
GATTGTCTTTTTGCTAGTTTGTCCCCCCCCCGGCAGATCTGGGTTCTGGTG (double strand) [LcEIL3 mutant probe1] | – | binding result (GST-LcKNAT1 [1]; mutant competitor vs labeled N3): no binding
GATTGTCTTTTTGCTAGTTTGTGTCAGGTCAGGCAGATCTGGGTTCTGGTG (double strand) [LcEIL3 probe1] | binds | –
GGATTGGTTTTTGTATATGTGGTCAAAAAGGTCACTTGTTTGCTAAATTAGAG / CTCTAATTTAGCAAACAAGTGCCTTTTTGACCACATATACAAAAACCAATCC [LcEIL3 probe2] | binds | –
GGATTGGTTTTTGTATATGTGTTTTTTTTTTTTTCTTGTTTGCTAAATTAGAG (double strand) [LcEIL3 mutant probe2] | – | binding result (GST-LcKNAT1 [1]; mutant competitor vs labeled N5): no binding

For at least one entry, the source does not settle the construct or the ends of the probe. For part of these data: No signal at the amounts used counts as a negative. At least one verdict was read from the data and is not stated in words by the source.
